Measurements taken from EP0364819A2 (The Administrators of The Tulane Educational Fund, priority 1988, dated 1990).
Square brackets hold non-standard residues; d marks the D form. pGlu = O=C1CC[C@@H](C(=O)O)N1

Assay: general procedure: Boc solid-phase peptide synthesis; benzhydrylamine HCl resin, about 1 meq NH2/g (Advanced ChemTech); DIC
Settings: whole synthesis

In the case of [pGlu]HWSY-OH, the “final HPLC purity” value (analytical HPLC (HP-1090, W-Porex C18), scale of the general procedure 1 g resin, about 1 mmol) is reported as >95%, the crude mass (scale 1 mmol) is reported as 686 mg and the isolated mass (scale 1 mmol) is reported as 350 mg.
